The record followed here is patent US20200095296A1, “USE OF PEPTIDES AS BIOMARKERS IN THE DIAGNOSIS, CONFIRMATION AND TREATMENT OF A NEUROLOGICAL DISORDER AND TCR AND/OR HLA IMMUNOPROFILING IN NEURODEGENERATIVE DISEASE” (THE TRUSTEES OF COLUMBIA UNIVERSITY IN THE CITY OF NEW YORK, priority 2017, published 2020).

These are yes or no findings as the source states them, for the method shown. Some results given as binding are weak or reduced against the parent protein; the word gives no strength.

The assay concerns the target HLA A*11:01 (human). The assay can be described thus: competition with radiolabeled peptide, purified HLA A*11:01.

Turning to VLYVGSKTK [alpha-syn peptide aa37…aa45], the binding entry was “binds”.
